Results are given in words; binding and its absence hold for the method and conditions named. In cells and extracts the contact can be indirect. These calls come from enrichment with a bait or labelling near it, and not all partners need be listed.

The assay deals with AFAP-streptavidin-binding peptide-3xFLAG tag fusion protein (Anaplasma phagocytophilum). The experiment in a line: affinity purification with mass spectrometry.

B1: ATF3 (protein, UniProt P18847 1-181)
chain: MMLQHPGQVSASEVSASAIVPCLSPPGSLVFEDFANLTPFVKEELRFAIQNKHLCHRMSSALESVTVSDRPLGVSITKAEVAPEEDERKKRRRERNKIAAAKCRNKKKEKTECLQKESEKLESVNAELKAQIEELKNEKQHLIYMLNLHRPTCIVRAQNGRTPEDERNLFIQQIKEGTLQS
As to B1, the binding entry was “binds”.

B2: MYBBP1A (protein, UniProt Q9BQG0 1-1328)
chain: MESRDPAQPMSPGEATQSGARPADRYGLLKHSREFLDFFWDIAKPEQETRLAATEKLLEYLRGRPKGSEMKYALKRLITGLGVGRETARPCYSLALAQLLQSFEDLPLCSILQQIQEKYDLHQVKKAMLRPALFANLFGVLALFQSGRLVKDQEALMKSVKLLQALAQYQNHLQEQPRKALVDILSEVSKATLQEILPEVLKADLNIILSSPEQLELFLLAQQKVPSKLKKLVGSVNLFSDENVPRLVNVLKMAASSVKKDRKLPAIALDLLRLALKEDKFPRFWKEVVEQGLLKMQFWPASYLCFRLLGAALPLLTKEQLHLVMQGDVIRHYGEHVCTAKLPKQFKFAPEMDDYVGTFLEGCQDDPERQLAVLVAFSSVTNQGLPVTPTFWRVVRFLSPPALQGYVAWLRAMFLQPDLDSLVDFSTNNQKKAQDSSLHMPERAVFRLRKWIIFRLVSIVDSLHLEMEEALTEQVARFCLFHSFFVTKKPTSQIPETKHPFSFPLENQAREAVSSAFFSLLQTLSTQFKQAPGQTQGGQPWTYHLVQFADLLLNHSHNVTTVTPFTAQQRQAWDRMLQTLKELEAHSAEARAAAFQHLLLLVGIHLLKSPAESCDLLGDIQTCIRKSLGEKPRRSRTKTIDPQEPPWVEVLVEILLALLAQPSHLMRQVARSVFGHICSHLTPRALQLILDVLNPETSEDENDRVVVTDDSDERRLKGAEDKSEEGEDNRSSESEEESEGEESEEEERDGDVDQGFREQLMTVLQAGKALGGEDSENEEELGDEAMMALDQSLASLFAEQKLRIQARRDEKNKLQKEKALRRDFQIRVLDLVEVLVTKQPENALVLELLEPLLSIIRRSLRSSSSKQEQDLLHKTARIFTHHLCRARRYCHDLGERAGALHAQVERLVQQAGRQPDSPTALYHFNASLYLLRVLKGNTAEGCVHETQEKQKAGTDPSHMPTGPQAASCLDLNLVTRVYSTALSSFLTKRNSPLTVPMFLSLFSRHPVLCQSLLPILVQHITGPVRPRHQACLLLQKTLSMREVRSCFEDPEWKQLMGQVLAKVTENLRVLGEAQTKAQHQQALSSLELLNVLFRTCKHEKLTLDLTVLLGVLQGQQQSLQQGAHSTGSSRLHDLYWQAMKTLGVQRPKLEKKDAKEIPSATQSPISKKRKKKGFLPETKKRKKRKSEDGTPAEDGTPAATGGSQPPSMGRKKRNRTKAKVPAQANGTPTTKSPAPGAPTRSPSTPAKSPKLQKKNQKPSQVNGAPGSPTEPAGQKQHQKALPKKGVLGKSPLSALARKKARLSLVIRSPSLLQSGAKKKAQVRKAGKP
Consider B2, for which the binding entry is listed as “binds”.

B3: EEF1E1 (protein, UniProt O43324 1-174)
chain: MAAAAELSLLEKSLGLSKGNKYSAQGERQIPVLQTNNGPSLTGLTTIAAHLVKQANKEYLLGSTAEEKAIVQQWLEYRVTQVDGHSSKNDIHTLLKDLNSYLEDKVYLTGYNFTLADILLYYGLHRFIVDLTVQEKEKYLNVSRWFCHIQHYPGIRQHLSSVVFIKNRLYTNSH
As to B3, the binding entry was “binds”.

B4: BBX (protein, UniProt Q8WY36 1-941)
chain: MKGSNRNKDHSAEGEGVGKRPKRKCLQWHPLLAKKLLDFSEEEEEEDEEEDIDKVQLLGADGLEQDVGETEDDESPEQRARRPMNAFLLFCKRHRSLVRQEHPRLDNRGATKILADWWAVLDPKEKQKYTDMAKEYKDAFMKANPGYKWCPTTNKPVKSPTPTVNPRKKLWAFPSDSSRDLPSPKKAKTEEMPQLNFGMADPTQMGGLSMLLLAGEHALGTPEVSSGTCRPDVSESPELRQKSPLFQFAEISSSTSHSDASTKQCQTSALFQFAEISSNTSQLGGAEPVKRCGKSALFQLAEMCLASEGMKMEESKLIKAKESDGGRIKELEKGKEEKEIKMEKTDETRLQKEAEFEKSAKENLRDSKELRNFEALQIDDIMAIKMEDPKEIRKEELEEDHKCSHFPDFSYSASSKIIISDVPSRKDHMCHPHGIMIIEDPAALNKPEKLKKKKKKSKMDRHGNDKSTPKKTCKKRQSSESDIESVIYTIEAVAKGDWGIEKLGDTPRKKVRTSSSGKGSILDAKPPKKKVKSREKKMSKEKSSDTTKESRPPDFISISASKNISGETPEGIKAEPLTPMEDALPPSLSGQAKPEDSDCHRKIETCGSRKSERSCKGALYKTLVSEGMLTSLRANVDRGKRSSGKGNSSDHEGCWNEESWTFSQSGTSGSKKFKKTKPKEDCLLGSAKLDEEFEKKFNSLPQYSPVTFDRKCVPVPRKKKKTGNVSSEPTKTSKGPFQSQKKNLFHKIVSKYKHKKEKPNVPEKGSGDKWSNKQLFLDAIHPTEAIFSEDRNTMEPVHKVKNIPSIFNTPEPTTTQEPLVGSQKRKARKTKITHLVRTADGRVSPAGGTLDDKPKEQLQRSLPKATETDCNDKCSHNTEVGETRSSTPEMPAVSAFFSLAALAEVAAMENVHRGQRSTPLTHDGQPKEMPQAPVLISCADQ
As for B4, the binding entry is “binds”.

B5: NOP2 (protein, UniProt P46087 1-812)
chain: MGRKLDPTKEKRGPGRKARKQKGAETELVRFLPAVSDENSKRLSSRARKRAAKRRLGSVEAPKTNKSPEAKPLPGKLPKGISAGAVQTAGKKGPQSLFNAPRGKKRPAPGSDEEEEEEDSEEDGMVNHGDLWGSEDDADTVDDYGADSNSEDEEEGEALLPIERAARKQKAREAAAGIQWSEEETEDEEEEKEVTPESGPPKVEEADGGLQINVDEEPFVLPPAGEMEQDAQAPDLQRVHKRIQDIVGILRDFGAQREEGRSRSEYLNRLKKDLAIYYSYGDFLLGKLMDLFPLSELVEFLEANEVPRPVTLRTNTLKTRRRDLAQALINRGVNLDPLGKWSKTGLVVYDSSVPIGATPEYLAGHYMLQGASSMLPVMALAPQEHERILDMCCAPGGKTSYMAQLMKNTGVILANDANAERLKSVVGNLHRLGVTNTIISHYDGRQFPKVVGGFDRVLLDAPCSGTGVISKDPAVKTNKDEKDILRCAHLQKELLLSAIDSVNATSKTGGYLVYCTCSITVEENEWVVDYALKKRNVRLVPTGLDFGQEGFTRFRERRFHPSLRSTRRFYPHTHNMDGFFIAKFKKFSNSIPQSQTGNSETATPTNVDLPQVIPKSENSSQPAKKAKGAAKTKQQLQKQQHPKKASFQKLNGISKGADSELSTVPSVTKTQASSSFQDSSQPAGKAEGIREPKVTGKLKQRSPKLQSSKKVAFLRQNAPPKGTDTQTPAVLSPSKTQATLKPKDHHQPLGRAKGVEKQQLPEQPFEKAAFQKQNDTPKGPQPPTVSPIRSSRPPPAKRKKSQSRGNSQLLLS
For the molecule B5, the binding result is listed as “binds”.

B6: formin-binding protein 4 (protein, UniProt Q8N3X1 1-1017)
chain: MGKKSRAVPGRRPILQLSPPGPRGSTPGRDPEPEPDTEPDSTAAVPSQPAPSAATTTTTAVTAAAASDDSPSEDEQEAVQEVPRVVQNPPKPVMTTRPTAVKATGGLCLLGAYADSDDDDNDVSEKLAQSKETNGNQSTDIDSTLANFLAEIDAITAPQPAAPVGASAPPPTPPRPEPKEAATSTLSSSTSNGTDSTQTSGWQYDTQCSLAGVGIEMGDWQEVWDENTGCYYYWNTQTNEVTWELPQYLATQVQGLQHYQPSSVPGAETSFVVNTDIYSKEKTISVSSSKSGPVIAKREVKKEVNEGIQALSNSEEEKKGVAASLLAPLLPEGIKEEEERWRRKVICKEEPVSEVKETSTTVEEATTIVKPQEIMLDNIEDPSQEDLCSVVQSGESEEEEEQDTLELELVLERKKAELRALEEGDGSVSGSSPRSDISQPASQDGMRRLMSKRGKWKMFVRATSPESTSRSSSKTGRDTPENGETAIGAENSEKIDENSDKEMEVEESPEKIKVQTTPKVEEEQDLKFQIGELANTLTSKFEFLGINRQSISNFHVLLLQTETRIADWREGALNGNYLKRKLQDAAEQLKQYEINATPKGWSCHWDRDHRRYFYVNEQSGESQWEFPDGEEEEEESQAQENRDETLAKQTLKDKTGTDSNSTESSETSTGSLCKESFSGQVSSSSLMPLTPFWTLLQSNVPVLQPPLPLEMPPPPPPPPESPPPPPPPPPPAEDGEIQEVEMEDEGSEEPPAPGTEEDTPLKPSAQTTVVTSQSSVDSTISSSSSTKGIKRKATEISTAVVQRSATIGSSPVLYSQSAIATGHQAAGIGNQATGIGHQTIPVSLPAAGMGHQARGMSLQSNYLGLAAAPAIMSYAECSVPIGVTAPSLQPVQARGAVPTATIIEPPPPPPPPPPPPPPAPKMPPPEKTKKGRKDKAKKSKTKMPSLVKKWQSIQRELDEEDNSSSSEEDRESTAQKRIEEWKQQQLVSGMAERNANFEALPEDWRARLKRRKMAPNT
Turning to B6, the binding entry is “binds”.

B7: GTSE1 (protein, UniProt Q9NYZ3 1-739)
chain: MEGGGGRDEPSACRAGDVNMDDPKKEDILLLADEKFDFDLSLSSSSANEDDEVFFGPFGHKERCIAASLELNNPVPEQPPLPTSESPFAWSPLAGEKFVEVYKEAHLLALHIESSSRNQAAQAAKPEDPRSQGVERFIQESKLKINLFEKEKEMKKSPTSLKRETYYLSDSPLLGPPVGEPRLLASSPALPSSGAQARLTRAPGPPHSAHALPRESCTAHAASQAATQRKPGTKLLLPRAASVRGRSIPGAAEKPKKEIPASPSRTKIPAEKESHRDVLPDKPAPGAVNVPAAGSHLGQGKRAIPVPNKLGLKKTLLKAPGSTSNLARKSSSGPVWSGASSACTSPAVGKAKSSEFASIPANSSRPLSNISKSGRMGPAMLRPALPAGPVGASSWQAKRVDVSELAAEQLTAPPSASPTQPQTPEGGGQWLNSSCAWSESSQLNKTRSIRRRDSCLNSKTKVMPTPTNQFKIPKFSIGDSPDSSTPKLSRAQRPQSCTSVGRVTVHSTPVRRSSGPAPQSLLSAWRVSALPTPASRRCSGLPPMTPKTMPRAVGSPLCVPARRRSSEPRKNSAMRTEPTRESNRKTDSRLVDVSPDRGSPPSRVPQALNFSPEESDSTFSKSTATEVAREEAKPGGDAAPSEALLVDIKLEPLAVTPDAASQPLIDLPLIDFCDTPEAHVAVGSESRPLIDLMTNTPDMNKNVAKPSPVVGQLIDLSSPLIQLSPEADKENVDSPLLKF
Consider B7, for which the binding entry is recorded as “binds”.

B8: RRP8 (protein, UniProt O43159 1-456)
chain: MFEEPEWAEAAPVAAGLGPVISRPPPAASSQNKGSKRRQLLATLRALEAASLSQHPPSLCISDSEEEEEERKKKCPKKASFASASAEVGKKGKKKCQKQGPPCSDSEEEVERKKKCHKQALVGSDSAEDEKRKRKCQKHAPINSAQHLDNVDQTGPKAWKGSTTNDPPKQSPGSTSPKPPHTLSRKQWRNRQKNKRRCKNKFQPPQVPDQAPAEAPTEKTEVSPVPRTDSHEARAGALRARMAQRLDGARFRYLNEQLYSGPSSAAQRLFQEDPEAFLLYHRGFQSQVKKWPLQPVDRIARDLRQRPASLVVADFGCGDCRLASSIRNPVHCFDLASLDPRVTVCDMAQVPLEDESVDVAVFCLSLMGTNIRDFLEEANRVLKPGGLLKVAEVSSRFEDVRTFLRAVTKLGFKIVSKDLTNSHFFLFDFQKTGPPLVGPKAQLSGLQLQPCLYKRR
As for B8, the binding result is “binds”.

B9: ribosome production factor 1 (protein, UniProt Q9H9Y2 1-349)
chain: MAKAGDKSSSSGKKSLKRKAAAEELQEAAGAGDGATENGVQPPKAAAFPPGFSISEIKNKQRRHLMFTRWKQQQRKEKLAAKKKLKKEREALGDKAPPKPVPKTIDNQRVYDETTVDPNDEEVAYDEATDEFASYFNKQTSPKILITTSDRPHGRTVRLCEQLSTVIPNSHVYYRRGLALKKIIPQCIARDFTDLIVINEDRKTPNGLILSHLPNGPTAHFKMSSVRLRKEIKRRGKDPTEHIPEIILNNFTTRLGHSIGRMFASLFPHNPQFIGRQVATFHNQRDYIFFRFHRYIFRSEKKVGIQELGPRFTLKLRSLQKGTFDSKYGEYEWVHKPREMDTSRRKFHL
With B9, the binding entry is reported as “binds”.

The values above are taken from article PMC11747512.
